# Experiments:
# BRD4 BD1 N140A = details: TSA
# BRD4 BD1 wild type = details: WT, TSA
# BRD4 BD1 Y97F = details: TSA
compound,measurement,setting,value
"Cc1sc2c(c1C)C(c1ccc(Cl)cc1)=N[C@@H](CC(=O)OC(C)(C)C)c1nnc(C)n1-2 [JQ1, tert-butyl[(6S)-4-(4-chlorophenyl)-2,3,9-trimethyl-6H-thieno[3,2-f][1,2,4]triazolo[4,3-a][1,4]diazepin-6-yl]acetate]",ΔG°,BRD4 BD1 N140A,-11 kcal/mol
same,−TΔS°,BRD4 BD1 N140A,-8.15 kcal/mol
same,ΔH°b,BRD4 BD1 N140A; 100 μM JQ1 vs DMSO,-2.84 kcal/mol
same,ΔG°,BRD4 BD1 wild type,-12.3 kcal/mol
same,−TΔS°,BRD4 BD1 wild type,-8.96 kcal/mol
same,ΔH°b,BRD4 BD1 wild type; 100 μM JQ1 vs DMSO,-3.3 kcal/mol
same,ΔG°,BRD4 BD1 Y97F,-10.9 kcal/mol
same,−TΔS°,BRD4 BD1 Y97F,-7.19 kcal/mol
same,ΔH°b,BRD4 BD1 Y97F; 100 μM JQ1 vs DMSO,-3.7 kcal/mol

# Source: publication PMC3979416 (The Journal of Biological Chemistry, 2014)
